Here are results for 40 targets from the supplement of paper PMC12819154, “High-throughput peptide-centric local stability assay extends protein–ligand identification to membrane proteins, tissues and bacteria” (Nature Structural & Molecular Biology, 2025).

Sequences of proteins named here, by UniProt entry; tags and fusion partners are left off. A change or cut given only in a name is not applied to a line headed by its entry.
UniProt Q9R1P4: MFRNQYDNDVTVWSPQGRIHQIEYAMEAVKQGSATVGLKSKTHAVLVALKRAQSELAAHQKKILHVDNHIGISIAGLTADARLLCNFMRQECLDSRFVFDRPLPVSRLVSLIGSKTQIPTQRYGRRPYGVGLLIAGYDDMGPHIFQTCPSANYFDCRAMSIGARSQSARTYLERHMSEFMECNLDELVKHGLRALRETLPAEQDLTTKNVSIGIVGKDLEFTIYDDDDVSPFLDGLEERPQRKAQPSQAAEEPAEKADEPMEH
UniProt Q9R0X4: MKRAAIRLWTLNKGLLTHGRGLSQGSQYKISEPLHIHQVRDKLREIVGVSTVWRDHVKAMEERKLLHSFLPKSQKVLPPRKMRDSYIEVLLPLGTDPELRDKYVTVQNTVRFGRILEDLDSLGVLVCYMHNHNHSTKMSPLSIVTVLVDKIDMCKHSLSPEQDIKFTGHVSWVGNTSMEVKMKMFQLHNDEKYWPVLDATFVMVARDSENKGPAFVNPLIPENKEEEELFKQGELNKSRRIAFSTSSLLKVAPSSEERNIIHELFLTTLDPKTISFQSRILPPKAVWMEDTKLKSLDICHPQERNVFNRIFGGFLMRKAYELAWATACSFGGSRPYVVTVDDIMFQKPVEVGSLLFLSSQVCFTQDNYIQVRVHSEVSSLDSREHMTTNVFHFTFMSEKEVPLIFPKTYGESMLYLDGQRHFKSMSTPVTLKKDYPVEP
UniProt Q9R118, whole entry: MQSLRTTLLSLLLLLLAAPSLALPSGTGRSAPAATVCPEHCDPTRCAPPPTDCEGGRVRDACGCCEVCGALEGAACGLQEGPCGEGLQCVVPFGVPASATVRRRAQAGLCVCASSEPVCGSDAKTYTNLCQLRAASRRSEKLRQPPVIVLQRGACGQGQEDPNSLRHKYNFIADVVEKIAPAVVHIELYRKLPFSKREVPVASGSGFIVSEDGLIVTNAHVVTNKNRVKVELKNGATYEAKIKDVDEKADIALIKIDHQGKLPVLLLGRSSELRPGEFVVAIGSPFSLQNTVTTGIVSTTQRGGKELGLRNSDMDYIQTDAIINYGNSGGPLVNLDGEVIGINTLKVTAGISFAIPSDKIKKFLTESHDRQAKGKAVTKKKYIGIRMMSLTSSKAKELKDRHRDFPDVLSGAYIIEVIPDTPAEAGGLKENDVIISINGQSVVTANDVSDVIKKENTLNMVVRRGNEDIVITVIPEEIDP
UniProt Q9R0M6: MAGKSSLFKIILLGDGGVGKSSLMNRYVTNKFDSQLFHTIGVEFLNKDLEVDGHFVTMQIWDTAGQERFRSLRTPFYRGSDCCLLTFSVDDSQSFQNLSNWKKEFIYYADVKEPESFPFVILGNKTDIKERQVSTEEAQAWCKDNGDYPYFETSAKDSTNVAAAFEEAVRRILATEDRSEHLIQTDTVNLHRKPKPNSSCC
UniProt Q9QXT5: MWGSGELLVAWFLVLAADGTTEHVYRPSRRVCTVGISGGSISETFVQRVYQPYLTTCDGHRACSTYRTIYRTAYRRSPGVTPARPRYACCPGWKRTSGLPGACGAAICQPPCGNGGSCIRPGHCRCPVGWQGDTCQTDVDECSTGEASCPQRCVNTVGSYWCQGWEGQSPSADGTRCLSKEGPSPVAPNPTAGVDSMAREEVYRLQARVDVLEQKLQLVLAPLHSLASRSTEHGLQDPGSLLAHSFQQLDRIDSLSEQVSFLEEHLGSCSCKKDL
UniProt Q9QZS8: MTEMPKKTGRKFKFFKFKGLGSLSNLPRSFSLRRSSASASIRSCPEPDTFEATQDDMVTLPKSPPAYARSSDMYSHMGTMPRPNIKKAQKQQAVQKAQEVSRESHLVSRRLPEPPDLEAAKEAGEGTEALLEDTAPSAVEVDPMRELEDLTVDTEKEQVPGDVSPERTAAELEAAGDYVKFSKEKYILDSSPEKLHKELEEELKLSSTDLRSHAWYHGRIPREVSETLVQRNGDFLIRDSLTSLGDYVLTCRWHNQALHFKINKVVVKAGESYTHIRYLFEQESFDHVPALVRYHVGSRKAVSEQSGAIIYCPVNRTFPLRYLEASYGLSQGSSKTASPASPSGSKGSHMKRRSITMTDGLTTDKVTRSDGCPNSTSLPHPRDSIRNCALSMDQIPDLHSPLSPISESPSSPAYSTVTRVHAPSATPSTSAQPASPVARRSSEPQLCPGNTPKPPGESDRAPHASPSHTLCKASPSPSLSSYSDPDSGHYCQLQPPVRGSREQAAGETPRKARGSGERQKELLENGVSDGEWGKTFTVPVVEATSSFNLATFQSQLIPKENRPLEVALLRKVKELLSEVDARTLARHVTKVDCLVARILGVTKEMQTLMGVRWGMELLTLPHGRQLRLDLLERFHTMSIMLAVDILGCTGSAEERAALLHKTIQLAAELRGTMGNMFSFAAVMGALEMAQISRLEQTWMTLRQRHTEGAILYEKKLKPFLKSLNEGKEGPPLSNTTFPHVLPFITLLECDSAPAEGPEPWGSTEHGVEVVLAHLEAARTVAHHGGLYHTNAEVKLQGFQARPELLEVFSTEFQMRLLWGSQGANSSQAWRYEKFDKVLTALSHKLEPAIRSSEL
UniProt Q9QXL2: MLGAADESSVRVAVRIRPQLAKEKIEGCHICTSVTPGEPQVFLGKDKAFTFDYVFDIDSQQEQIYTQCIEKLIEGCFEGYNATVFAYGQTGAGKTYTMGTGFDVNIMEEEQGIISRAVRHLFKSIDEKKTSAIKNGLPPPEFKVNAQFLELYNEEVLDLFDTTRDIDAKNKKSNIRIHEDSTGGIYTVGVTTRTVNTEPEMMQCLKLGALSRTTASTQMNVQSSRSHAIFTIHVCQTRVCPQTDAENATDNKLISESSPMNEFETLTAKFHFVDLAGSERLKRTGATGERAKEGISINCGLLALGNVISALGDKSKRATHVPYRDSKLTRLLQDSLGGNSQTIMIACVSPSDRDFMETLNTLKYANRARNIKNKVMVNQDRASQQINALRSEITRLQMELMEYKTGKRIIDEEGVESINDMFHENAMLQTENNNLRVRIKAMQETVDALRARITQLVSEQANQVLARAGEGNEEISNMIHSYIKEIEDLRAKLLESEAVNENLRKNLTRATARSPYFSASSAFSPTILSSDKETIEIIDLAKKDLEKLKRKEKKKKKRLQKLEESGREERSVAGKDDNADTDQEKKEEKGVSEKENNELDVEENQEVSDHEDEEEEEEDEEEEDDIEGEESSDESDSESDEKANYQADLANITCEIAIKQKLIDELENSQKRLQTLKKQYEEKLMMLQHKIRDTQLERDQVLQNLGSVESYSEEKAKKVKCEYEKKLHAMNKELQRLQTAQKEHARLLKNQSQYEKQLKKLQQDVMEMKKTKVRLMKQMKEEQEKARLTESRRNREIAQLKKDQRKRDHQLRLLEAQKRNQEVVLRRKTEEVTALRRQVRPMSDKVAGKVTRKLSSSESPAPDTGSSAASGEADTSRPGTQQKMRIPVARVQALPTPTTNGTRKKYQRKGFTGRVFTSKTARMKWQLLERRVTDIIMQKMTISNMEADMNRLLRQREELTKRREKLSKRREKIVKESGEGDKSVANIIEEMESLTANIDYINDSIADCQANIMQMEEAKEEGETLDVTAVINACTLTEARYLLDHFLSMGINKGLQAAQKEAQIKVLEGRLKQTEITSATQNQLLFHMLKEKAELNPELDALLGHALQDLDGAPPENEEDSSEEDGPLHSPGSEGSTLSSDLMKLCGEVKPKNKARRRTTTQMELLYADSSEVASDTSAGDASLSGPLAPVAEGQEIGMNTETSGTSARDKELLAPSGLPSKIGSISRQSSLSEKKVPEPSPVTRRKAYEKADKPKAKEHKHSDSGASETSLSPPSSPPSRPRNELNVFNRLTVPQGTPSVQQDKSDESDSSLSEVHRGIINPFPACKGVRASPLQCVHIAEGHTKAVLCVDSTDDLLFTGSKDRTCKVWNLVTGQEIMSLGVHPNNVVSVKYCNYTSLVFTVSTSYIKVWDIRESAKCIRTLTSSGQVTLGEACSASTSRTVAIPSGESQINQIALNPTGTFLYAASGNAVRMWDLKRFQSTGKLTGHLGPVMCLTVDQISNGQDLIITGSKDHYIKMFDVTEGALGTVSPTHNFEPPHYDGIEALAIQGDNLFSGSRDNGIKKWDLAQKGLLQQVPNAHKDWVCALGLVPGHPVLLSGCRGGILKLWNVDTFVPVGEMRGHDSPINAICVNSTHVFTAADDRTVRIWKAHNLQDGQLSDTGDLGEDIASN
UniProt Q9R190: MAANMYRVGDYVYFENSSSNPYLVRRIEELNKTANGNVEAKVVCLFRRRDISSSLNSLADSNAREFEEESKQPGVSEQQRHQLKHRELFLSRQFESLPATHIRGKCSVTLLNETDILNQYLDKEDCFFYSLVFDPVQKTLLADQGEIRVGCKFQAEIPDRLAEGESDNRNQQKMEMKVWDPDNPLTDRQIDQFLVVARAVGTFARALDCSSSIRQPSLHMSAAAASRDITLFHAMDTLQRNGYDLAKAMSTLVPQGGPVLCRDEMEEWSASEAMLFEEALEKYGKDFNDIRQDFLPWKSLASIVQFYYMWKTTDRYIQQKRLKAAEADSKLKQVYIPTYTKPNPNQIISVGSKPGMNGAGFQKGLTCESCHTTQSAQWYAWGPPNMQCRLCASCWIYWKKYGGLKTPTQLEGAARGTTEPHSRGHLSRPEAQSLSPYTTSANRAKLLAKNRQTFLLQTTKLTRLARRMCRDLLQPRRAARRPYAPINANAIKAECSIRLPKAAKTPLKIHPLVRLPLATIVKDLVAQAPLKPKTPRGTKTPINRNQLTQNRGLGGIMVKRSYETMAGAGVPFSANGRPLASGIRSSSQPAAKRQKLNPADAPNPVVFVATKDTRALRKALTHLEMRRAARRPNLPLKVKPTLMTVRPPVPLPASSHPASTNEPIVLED
UniProt Q9WUA2: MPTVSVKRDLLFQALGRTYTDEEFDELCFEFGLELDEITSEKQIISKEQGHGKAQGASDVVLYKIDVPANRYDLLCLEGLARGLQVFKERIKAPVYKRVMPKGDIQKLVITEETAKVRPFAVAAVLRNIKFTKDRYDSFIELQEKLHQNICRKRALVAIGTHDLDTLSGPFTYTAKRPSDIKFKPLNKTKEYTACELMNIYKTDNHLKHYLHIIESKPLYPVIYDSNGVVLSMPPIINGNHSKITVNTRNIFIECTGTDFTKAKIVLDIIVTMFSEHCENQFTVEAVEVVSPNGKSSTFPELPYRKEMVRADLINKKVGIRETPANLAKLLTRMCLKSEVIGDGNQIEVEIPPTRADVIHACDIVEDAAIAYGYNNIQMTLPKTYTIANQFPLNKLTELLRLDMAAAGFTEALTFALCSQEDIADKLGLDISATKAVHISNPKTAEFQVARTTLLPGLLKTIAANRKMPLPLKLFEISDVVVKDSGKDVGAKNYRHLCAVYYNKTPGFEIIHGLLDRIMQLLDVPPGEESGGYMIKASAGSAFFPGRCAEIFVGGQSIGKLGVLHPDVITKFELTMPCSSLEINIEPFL
UniProt Q9R0G6: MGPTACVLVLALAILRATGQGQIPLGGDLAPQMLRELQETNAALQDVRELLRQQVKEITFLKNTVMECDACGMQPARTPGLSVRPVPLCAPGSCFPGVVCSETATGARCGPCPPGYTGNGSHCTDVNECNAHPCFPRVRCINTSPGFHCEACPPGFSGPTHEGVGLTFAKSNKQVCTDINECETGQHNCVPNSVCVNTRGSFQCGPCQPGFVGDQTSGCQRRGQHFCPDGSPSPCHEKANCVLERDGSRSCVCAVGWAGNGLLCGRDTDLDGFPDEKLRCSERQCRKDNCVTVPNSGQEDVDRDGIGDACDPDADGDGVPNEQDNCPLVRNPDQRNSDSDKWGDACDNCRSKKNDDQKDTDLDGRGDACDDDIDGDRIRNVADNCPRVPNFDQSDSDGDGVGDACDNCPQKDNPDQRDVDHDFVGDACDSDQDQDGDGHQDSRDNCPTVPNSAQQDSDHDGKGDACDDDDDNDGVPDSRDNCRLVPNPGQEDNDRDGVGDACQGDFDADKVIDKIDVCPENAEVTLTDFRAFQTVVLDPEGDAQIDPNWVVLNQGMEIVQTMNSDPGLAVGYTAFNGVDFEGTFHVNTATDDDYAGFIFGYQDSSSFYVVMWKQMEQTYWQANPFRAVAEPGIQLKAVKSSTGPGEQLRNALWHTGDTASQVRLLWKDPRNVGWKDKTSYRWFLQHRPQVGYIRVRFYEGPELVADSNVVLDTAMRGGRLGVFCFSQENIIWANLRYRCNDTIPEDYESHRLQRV
UniProt Q9QXL8, whole entry: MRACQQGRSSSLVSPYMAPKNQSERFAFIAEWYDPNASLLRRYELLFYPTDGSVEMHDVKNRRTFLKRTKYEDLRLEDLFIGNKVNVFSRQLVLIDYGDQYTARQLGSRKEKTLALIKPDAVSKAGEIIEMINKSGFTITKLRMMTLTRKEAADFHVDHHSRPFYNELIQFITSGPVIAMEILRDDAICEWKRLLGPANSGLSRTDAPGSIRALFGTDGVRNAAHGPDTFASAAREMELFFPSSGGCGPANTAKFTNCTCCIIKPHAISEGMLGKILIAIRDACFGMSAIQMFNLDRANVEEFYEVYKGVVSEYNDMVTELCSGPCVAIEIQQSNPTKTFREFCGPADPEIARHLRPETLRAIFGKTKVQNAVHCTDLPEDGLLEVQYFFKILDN

Some of the results follow. Most entries show no effect beyond the scatter of the controls.

Compound in this assay: CN[C@@H]1C[C@H]2O[C@@](C)([C@@H]1OC)n1c3ccccc3c3c4c(c5c6ccccc6n2c5c31)C(=O)NC4 [staurosporine]
Description: log2 fold change of tryptic peptide abundance, ligand vs vehicle (limited proteolysis) (log2 ratio); higher = more trypsin-susceptible (destabilized). To be noted: ligand concentration: 20 uM; sample: mouse liver crude lysate; replicate design: treated separately.
Consider “UniProt Q9R1P4 (peptide sequence: HMSEFMECNLDELVK, peptide start residue: 175)”, for which the log2 fold change is 0.248.

Take “UniProt Q9QYI3 (peptide sequence: ALEFAPACHR, peptide start residue: 168)”: the log2 fold change is 0.348.

Consider “UniProt Q9R0X4 (peptide sequence: IFGGFLMR, peptide start residue: 310)”, for which the log2 fold change came out at 0.261.

In the case of “UniProt Q9R118 (peptide sequence: QPPVIVLQR, peptide start residue: 144)”, the log2 fold change worked out at 0.319.

Turning to “UniProt Q9R0M6 (peptide sequence: SEHLIQTDTVNLHR, peptide start residue: 179)”, the log2 fold change is 0.0454.

“UniProt Q9QXD6 (peptide sequence: STDEPSEKDALQPGR, peptide start residue: 144)”: the log2 fold change stood at 0.32.

Consider “UniProt Q9QYI5 (peptide sequence: DLDVGGTHK, peptide start residue: 293)”, for which the log2 fold change is -0.109.

Regarding “UniProt Q9R1P1 (peptide sequence: LNLYELK, peptide start residue: 71)”, the log2 fold change is -0.143.

“UniProt Q9WV68 (peptide sequence: VNSLAPGAISGTEGLRR, peptide start residue: 203)”: the log2 fold change is -0.142.

For “UniProt Q9QZX7 (peptide sequence: LKGELTPNLHPPETIADGVK, peptide start residue: 222)”, the log2 fold change is 0.202.

As for “UniProt Q9R0H0 (peptide sequence: DVTLGSVLGR, peptide start residue: 614)”, the log2 fold change was -0.319.

Regarding “UniProt Q9QXZ6 (peptide sequence: MEETEKK, peptide start residue: 1)”, the log2 fold change is -0.161.

Turning to “UniProt Q9WV74 (peptide sequence: STPVYHASR, peptide start residue: 146)”, the log2 fold change is -0.0518.

“UniProt Q9QXT5 (peptide sequence: LQLVLAPLHSLASR, peptide start residue: 216)”: the log2 fold change is -0.176.

Turning to “UniProt Q9QZS8 (peptide sequence: VHAPSATPSTSAQPASPVAR, peptide start residue: 420)”, the log2 fold change is -0.189.

Turning to “UniProt Q9R269 (peptide sequence: NITTIDSGTHLNSR, peptide start residue: 1597)”, the log2 fold change is -0.264.

As for “UniProt Q9QYF9 (peptide sequence: GNRPVILTYHDIGLNHK, peptide start residue: 52)”, the log2 fold change was 0.146.

Consider “UniProt Q9QXK7 (peptide sequence: LTGDVEELEIQEKPALK, peptide start residue: 533)”, for which the log2 fold change was -0.299.

Consider “UniProt Q9WU28 (peptide sequence: IQPALQEK, peptide start residue: 117)”, for which the log2 fold change is -0.171.

As for “UniProt Q9QXL2 (peptide sequence: MKWQLLER, peptide start residue: 923)”, the log2 fold change stood at 0.272.

For “UniProt Q9WUV0 (peptide sequence: NIEPHLKK, peptide start residue: 256)”, the log2 fold change was -0.779.

On to “UniProt Q9QZN4 (peptide sequence: TLPEETVVIGRR, peptide start residue: 261)”, for which the log2 fold change amounted to 0.0769.

With “UniProt Q9QXV1 (peptide sequence: LLAAFEER, peptide start residue: 53)”, the log2 fold change was 0.187.

For the target “UniProt Q9QZN1 (peptide sequence: GAGVPACTPCKQPR, peptide start residue: 202)”, the log2 fold change worked out at 0.262.

Take “UniProt Q9WTL7 (peptide sequence: YICPHAPR, peptide start residue: 54)”: the log2 fold change is -0.228.

For “UniProt Q9R190 (peptide sequence: TPTQLEGAAR, peptide start residue: 406)”, the log2 fold change amounted to 0.42.

“UniProt Q9QZM0 (peptide sequence: NPEISHLLNNPDIMR, peptide start residue: 229)”: the log2 fold change was -0.0941.

For the target “UniProt Q9R0M8 (peptide sequence: GDLTTEPFLPK, peptide start residue: 375)”, the log2 fold change was -0.0662.

On to “UniProt Q9WUU8 (peptide sequence: LREENTELKK, peptide start residue: 253)”, for which the log2 fold change is -0.321.

As for “UniProt Q9WV66 (peptide sequence: GTSLNDSYHSR, peptide start residue: 30)”, the log2 fold change was -0.175.

Consider “UniProt Q9WUA2 (peptide sequence: SSTFPELPYRK, peptide start residue: 296)”, for which the log2 fold change is -0.337.

Regarding “UniProt Q9R0G6 (peptide sequence: AVAEPGIQLK, peptide start residue: 830)”, the log2 fold change is -0.118.

As to “UniProt Q9QXE2 (peptide sequence: VMEILESGHLR, peptide start residue: 311)”, the log2 fold change turned out to be 0.394.

As for “UniProt Q9QXL8 (peptide sequence: SSSLVSPYMAPK, peptide start residue: 9)”, the log2 fold change stood at 0.152.

Take “UniProt Q9R1W5 (peptide sequence: IQFGNGFSHSDALR, peptide start residue: 403)”: the log2 fold change amounted to 0.236.

Consider “UniProt Q9R049 (peptide sequence: VVGNMEAR, peptide start residue: 318)”, for which the log2 fold change was found to be 0.132.

With “UniProt Q9WU56 (peptide sequence: FGGDGLHEPLDWTQEEGKVTAFK, peptide start residue: 343)”, the log2 fold change stood at 0.804.

For “UniProt Q9QYK4 (peptide sequence: TSLHMCDGR, peptide start residue: 206)”, the log2 fold change amounted to 0.475.

“UniProt Q9QYG0 (peptide sequence: SCFQPLFR, peptide start residue: 77)”: the log2 fold change amounted to 0.0662.

Consider “UniProt Q9QYR7 (peptide sequence: MHAFTTQNPNR, peptide start residue: 1)”, for which the log2 fold change was 0.0986.
